Primary screen of a compound library

By UniProt entry, the sequences of proteins in these tests, tags left out.
UniProt E9BF75, entry or part of it: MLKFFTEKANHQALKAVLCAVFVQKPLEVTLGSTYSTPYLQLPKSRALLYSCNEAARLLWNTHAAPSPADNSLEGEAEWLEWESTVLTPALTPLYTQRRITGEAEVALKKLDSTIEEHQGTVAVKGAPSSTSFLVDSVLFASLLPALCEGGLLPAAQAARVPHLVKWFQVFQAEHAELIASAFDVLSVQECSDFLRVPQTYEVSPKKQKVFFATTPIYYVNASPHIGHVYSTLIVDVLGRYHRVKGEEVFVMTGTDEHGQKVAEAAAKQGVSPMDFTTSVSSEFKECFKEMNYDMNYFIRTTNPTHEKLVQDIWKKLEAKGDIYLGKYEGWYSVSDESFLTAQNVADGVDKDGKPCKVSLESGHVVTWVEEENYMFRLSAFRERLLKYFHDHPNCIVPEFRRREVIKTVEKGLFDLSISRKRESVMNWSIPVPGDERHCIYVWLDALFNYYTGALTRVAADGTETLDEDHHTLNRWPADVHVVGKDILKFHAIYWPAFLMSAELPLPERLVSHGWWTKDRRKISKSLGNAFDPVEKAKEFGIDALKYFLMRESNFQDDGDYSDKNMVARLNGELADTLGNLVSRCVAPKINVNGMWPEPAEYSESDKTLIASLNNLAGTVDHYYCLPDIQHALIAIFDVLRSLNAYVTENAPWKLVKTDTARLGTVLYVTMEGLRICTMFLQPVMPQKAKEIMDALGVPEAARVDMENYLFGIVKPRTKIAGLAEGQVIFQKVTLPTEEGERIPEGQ

All values are in %.
How 0% and 100% were set is not recorded. Most values in the screen are low, and negative values occur.
The compounds are a random part of those screened.

A: 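Assay on Mycobacterium tuberculosis, filed only as a heat shock assay from Cornell; the read-out is not stated. The concentration is filed as 10 mM, unlikely as a test dose, so the dose is not known. The record gives no direction; compounds that gave an IC50 in retests scored well above the rest, so higher reads as stronger inhibition. Size under these conditions: about 69,000 compounds, about 930 of them at 50% or above in at least one test.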
B: 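Primary screen of methionyl-tRNA synthetase; the read-out is not stated. Target: Methionyl-tRNA synthetase (putative), Leishmania donovani (UniProt E9BF75). The test concentration is not given. Values are per cent inhibition. Of about 68,000 compounds tested this way, about 24 (0.035%) reached 50% or more in at least one test.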
C: 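Whole-cell assay for inhibitors of Mycobacterium tuberculosis growth, labelled Cornell in the record; the read-out is not stated. The concentration is filed as 10 mM, unlikely as a test dose, so the dose is not known. Higher means stronger inhibition (inferred from two other growth screens of the library). Size under these conditions: about 53,000 compounds, about 900 of them at 50% or above in at least one test.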

Result for Cc1ccccc1-n1nc(C)c(CN(C)C(C)Cc2ccccn2)c1C.O=C(O)CC(O)(CC(=O)O)C(=O)O (centres unmarked) was A: -7.163%; C: 48.15%. NC(=O)C1(Cc2ccccc2-c2ccccc2)CCCN(CC2CC2)C1 (centres unmarked) gave A: 6.062%; B: 3.833%. CC1CCCCN1C(=O)c1ccc(=O)[nH]n1 (centres unmarked) read A: -1.677%; B: 10.47%; C: -37.74%. CC(C)C(Sc1nnc(NC2CC2)s1)C(=O)NCc1cccnc1 (centres unmarked) gave A: 18.72%; B: 6.599%. O=C(O)C(F)(F)F.O=C(O)C(F)(F)F.[H][C@]12CO[C@@H](CN(C)C)[C@@]1([H])CCN(Cc1ccc(C)o1)C2 read A: 1.216%; C: -4.085%.

Result for COc1ccc(Br)c(C(=O)NC(CC(=O)O)c2cccs2)c1 (centres unmarked) was A: 7.611%; B: 19.2%; C: -34.34%. CC(C)(C)NS(=O)(=O)c1cc(NC(=O)C2CC2)ccc1F read A: 11.25%; B: -3.194%; C: 50.55%. With Cc1cc(C(F)(F)F)nc(C2CCN(C(=O)CO)CC2)n1 the screen gave A: 9.537%; B: 12.46%; C: 24.26%. CC(C)Oc1ccc(C(=O)N2CCCC2c2cnn(C)c2)cn1 (centres unmarked) read A: -12.32%; B: 8.101%; C: -6.103%. Result for O=C(NCCNC(=O)c1ccc(Cl)cc1)NCCn1cccc1 was A: 13.15%; B: 13.18%; C: 35.34%.

For Cc1cnc(N2C[C@@H]3[C@@H](C2)OCC(=O)N3CC(C)C)nc1 the result was B: 10.14%. CC1CN(C)c2ccccc2CN1C(=O)CSc1ccncc1 (centres unmarked) read A: 6.344%; B: 12.32%; C: 0.5028%. With Cc1nnc([C@H]2C[C@H]3OCC[C@H]3N(S(=O)(=O)C3CC3)C2)o1 the screen gave B: 9.42%. With O=C(c1cccc(OC2CCCC2)c1)N1CCCC(n2cncn2)C1 (centres unmarked) the screen gave A: 12.23%; B: 16.99%; C: 9.518%. For Cc1cc(C)nc(CN(C)C(=O)C(c2cccnc2)N2CCCC2)c1 (centres unmarked) the result was A: 22.42%; B: 7.902%; C: -20.67%.

Result for CC(C)NC(=O)Nc1ccc2c(c1)ncn2CC(=O)NCCN(C)C was A: -0.1313%; B: 16.67%; C: -20.24%. CC(C)(C)c1ccc2c(c1)CCN2C(=O)c1nc(=O)[nH][nH]1 gave A: 12.88%; B: 18.11%. [H][C@@]12CCN(C(=O)c3ccco3)[C@]1([H])CN(S(C)(=O)=O)C2 read A: 15.2%; C: -46.25%. With COCC1(C(=O)N[C@H]2CN(c3noc(C)n3)C[C@@H]2C2CC2)CCC1 the screen gave A: -9.518%; B: 1.412%; C: 1.697%. With CN(C)c1ncc(-c2ccc(NC(=O)[C@@H]3CCCCN3)cc2)cn1 the screen gave A: -9.87%; B: 12.86%; C: -55.94%.

For reference, 2 entries once more:

CC(C)(C)NS(=O)(=O)c1cc(NC(=O)C2CC2)ccc1F read A: 11.25%; B: -3.194%; C: 50.55%.
[H][C@@]12CCN(C(=O)c3ccco3)[C@]1([H])CN(S(C)(=O)=O)C2 read A: 15.2%; C: -46.25%.

Source: ChEMBL document CHEMBL3988442, “University of Dundee, Small-Polar-MMV Screening Library” (2021).